In the supplement of paper PMC10849652:
Some of the results follow. Residues, ends and D or L forms follow the SMILES beside them. *: point of attachment. Cbz = O=C(OCc1ccccc1)*

The chains behind the UniProt entries cited, without tags or fusion partners. Where a name states a change or a piece, a line headed by the entry shows the natural chain unless it says otherwise.
UniProt Q95460, whole entry, looked up: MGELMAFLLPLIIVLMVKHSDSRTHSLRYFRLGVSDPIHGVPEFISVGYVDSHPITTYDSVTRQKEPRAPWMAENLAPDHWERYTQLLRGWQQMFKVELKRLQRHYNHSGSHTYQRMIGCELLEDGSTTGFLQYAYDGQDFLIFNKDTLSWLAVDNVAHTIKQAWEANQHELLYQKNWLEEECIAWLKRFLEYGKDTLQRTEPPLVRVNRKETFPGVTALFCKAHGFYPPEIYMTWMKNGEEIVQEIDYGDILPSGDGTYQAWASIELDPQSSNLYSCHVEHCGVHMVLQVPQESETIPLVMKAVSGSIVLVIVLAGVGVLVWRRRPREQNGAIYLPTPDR
UniProt Q9H3L0: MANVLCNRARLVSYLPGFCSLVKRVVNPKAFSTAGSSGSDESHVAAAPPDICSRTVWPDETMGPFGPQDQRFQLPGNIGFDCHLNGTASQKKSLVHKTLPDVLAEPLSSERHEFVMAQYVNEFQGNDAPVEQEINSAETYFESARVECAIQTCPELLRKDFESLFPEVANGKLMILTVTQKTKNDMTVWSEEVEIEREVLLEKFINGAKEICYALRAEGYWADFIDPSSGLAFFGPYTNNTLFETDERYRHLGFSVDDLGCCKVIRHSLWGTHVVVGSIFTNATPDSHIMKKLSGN
UniProt Q86TA1: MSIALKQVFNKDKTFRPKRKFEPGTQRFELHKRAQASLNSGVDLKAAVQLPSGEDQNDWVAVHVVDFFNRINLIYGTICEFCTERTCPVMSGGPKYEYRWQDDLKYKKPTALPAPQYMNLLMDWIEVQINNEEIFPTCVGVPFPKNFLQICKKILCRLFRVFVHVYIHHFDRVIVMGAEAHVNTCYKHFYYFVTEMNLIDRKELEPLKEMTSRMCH
UniProt Q9Y5U8: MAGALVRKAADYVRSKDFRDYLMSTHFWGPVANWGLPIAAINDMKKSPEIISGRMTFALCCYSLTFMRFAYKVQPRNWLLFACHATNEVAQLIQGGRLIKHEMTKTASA
UniProt Q13064: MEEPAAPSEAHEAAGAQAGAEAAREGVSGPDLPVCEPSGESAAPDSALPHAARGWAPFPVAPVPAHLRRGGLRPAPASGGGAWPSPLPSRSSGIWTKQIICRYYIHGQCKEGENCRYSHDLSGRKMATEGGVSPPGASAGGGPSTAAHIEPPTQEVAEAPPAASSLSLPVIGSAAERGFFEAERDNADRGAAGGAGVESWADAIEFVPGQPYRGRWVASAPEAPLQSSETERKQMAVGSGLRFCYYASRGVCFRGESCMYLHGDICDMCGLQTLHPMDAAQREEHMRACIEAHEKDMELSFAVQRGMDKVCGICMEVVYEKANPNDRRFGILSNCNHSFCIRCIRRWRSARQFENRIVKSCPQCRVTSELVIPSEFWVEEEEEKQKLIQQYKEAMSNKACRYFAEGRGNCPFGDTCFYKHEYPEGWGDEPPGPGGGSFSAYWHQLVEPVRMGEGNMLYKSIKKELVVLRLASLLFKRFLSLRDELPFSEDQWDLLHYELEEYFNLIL
UniProt Q99549: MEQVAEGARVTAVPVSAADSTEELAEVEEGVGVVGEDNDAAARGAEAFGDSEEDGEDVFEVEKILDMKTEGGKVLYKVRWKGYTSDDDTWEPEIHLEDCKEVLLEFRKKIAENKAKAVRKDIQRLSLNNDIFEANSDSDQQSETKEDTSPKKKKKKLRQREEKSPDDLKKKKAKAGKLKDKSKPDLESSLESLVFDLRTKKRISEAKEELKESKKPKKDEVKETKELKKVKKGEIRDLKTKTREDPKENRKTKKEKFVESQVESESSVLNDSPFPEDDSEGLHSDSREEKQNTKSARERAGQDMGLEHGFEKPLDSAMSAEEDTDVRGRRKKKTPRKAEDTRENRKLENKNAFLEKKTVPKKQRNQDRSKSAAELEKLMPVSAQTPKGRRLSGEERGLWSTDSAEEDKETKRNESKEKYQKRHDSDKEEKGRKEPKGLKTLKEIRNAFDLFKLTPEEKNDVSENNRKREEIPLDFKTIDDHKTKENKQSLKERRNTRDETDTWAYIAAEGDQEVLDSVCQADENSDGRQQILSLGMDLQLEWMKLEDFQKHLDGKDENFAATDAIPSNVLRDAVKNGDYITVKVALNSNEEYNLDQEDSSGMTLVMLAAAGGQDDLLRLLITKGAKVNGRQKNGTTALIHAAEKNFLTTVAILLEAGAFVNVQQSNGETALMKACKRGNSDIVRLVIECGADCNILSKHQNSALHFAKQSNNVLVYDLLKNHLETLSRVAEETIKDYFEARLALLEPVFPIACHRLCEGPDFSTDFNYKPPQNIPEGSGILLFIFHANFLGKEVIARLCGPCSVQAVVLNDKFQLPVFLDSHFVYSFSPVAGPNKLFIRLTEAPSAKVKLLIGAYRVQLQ
UniProt Q96BX8: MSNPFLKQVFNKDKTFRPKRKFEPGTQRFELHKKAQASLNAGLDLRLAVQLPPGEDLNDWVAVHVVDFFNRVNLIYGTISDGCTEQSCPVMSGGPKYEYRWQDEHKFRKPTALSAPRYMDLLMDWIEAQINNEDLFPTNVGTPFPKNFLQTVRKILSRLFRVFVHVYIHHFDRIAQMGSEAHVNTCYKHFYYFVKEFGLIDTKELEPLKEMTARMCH
UniProt Q4G0A6: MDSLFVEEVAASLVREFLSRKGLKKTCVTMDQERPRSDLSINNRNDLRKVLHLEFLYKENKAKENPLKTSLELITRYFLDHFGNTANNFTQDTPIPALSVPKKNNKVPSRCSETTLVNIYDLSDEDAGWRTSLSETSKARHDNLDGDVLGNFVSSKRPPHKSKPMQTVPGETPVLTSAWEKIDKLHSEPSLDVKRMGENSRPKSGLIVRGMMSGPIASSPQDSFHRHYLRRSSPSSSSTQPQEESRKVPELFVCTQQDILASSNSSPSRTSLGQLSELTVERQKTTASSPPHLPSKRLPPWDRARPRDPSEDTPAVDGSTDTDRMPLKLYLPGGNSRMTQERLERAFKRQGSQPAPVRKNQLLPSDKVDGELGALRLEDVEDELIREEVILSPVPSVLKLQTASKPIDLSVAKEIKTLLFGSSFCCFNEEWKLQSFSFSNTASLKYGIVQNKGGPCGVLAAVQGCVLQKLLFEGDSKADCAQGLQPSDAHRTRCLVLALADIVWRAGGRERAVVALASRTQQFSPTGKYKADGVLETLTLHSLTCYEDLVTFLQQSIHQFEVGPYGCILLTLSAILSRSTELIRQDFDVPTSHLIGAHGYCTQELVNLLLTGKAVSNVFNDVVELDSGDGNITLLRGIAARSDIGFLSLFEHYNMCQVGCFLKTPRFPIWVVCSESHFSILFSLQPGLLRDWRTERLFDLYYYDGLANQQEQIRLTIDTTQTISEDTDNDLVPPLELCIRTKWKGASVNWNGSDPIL
UniProt Q9UHC7: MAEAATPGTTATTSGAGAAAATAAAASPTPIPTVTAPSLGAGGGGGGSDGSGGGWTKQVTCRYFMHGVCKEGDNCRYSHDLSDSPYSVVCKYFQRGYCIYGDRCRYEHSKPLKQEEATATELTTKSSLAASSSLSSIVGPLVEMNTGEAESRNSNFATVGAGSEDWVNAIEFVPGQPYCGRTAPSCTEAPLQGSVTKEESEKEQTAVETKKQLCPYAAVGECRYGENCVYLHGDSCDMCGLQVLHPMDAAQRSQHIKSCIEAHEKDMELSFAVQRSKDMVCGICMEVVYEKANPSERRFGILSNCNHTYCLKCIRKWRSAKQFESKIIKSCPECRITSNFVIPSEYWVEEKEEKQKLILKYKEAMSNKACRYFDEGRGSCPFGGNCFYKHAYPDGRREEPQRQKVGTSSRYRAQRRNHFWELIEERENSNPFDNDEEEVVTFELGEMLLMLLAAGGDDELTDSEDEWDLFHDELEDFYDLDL
UniProt Q9BU76: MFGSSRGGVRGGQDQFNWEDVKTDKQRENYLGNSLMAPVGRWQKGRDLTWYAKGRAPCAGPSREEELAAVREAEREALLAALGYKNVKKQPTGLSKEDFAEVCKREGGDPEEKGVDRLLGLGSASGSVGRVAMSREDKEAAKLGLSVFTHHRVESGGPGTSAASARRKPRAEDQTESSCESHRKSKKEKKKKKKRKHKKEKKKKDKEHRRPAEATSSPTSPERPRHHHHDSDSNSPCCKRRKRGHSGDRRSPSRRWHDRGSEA
UniProt Q9Y605: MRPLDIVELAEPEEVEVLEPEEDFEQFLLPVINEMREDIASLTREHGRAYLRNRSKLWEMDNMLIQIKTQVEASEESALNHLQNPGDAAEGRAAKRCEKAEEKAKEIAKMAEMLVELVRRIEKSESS
UniProt P55197: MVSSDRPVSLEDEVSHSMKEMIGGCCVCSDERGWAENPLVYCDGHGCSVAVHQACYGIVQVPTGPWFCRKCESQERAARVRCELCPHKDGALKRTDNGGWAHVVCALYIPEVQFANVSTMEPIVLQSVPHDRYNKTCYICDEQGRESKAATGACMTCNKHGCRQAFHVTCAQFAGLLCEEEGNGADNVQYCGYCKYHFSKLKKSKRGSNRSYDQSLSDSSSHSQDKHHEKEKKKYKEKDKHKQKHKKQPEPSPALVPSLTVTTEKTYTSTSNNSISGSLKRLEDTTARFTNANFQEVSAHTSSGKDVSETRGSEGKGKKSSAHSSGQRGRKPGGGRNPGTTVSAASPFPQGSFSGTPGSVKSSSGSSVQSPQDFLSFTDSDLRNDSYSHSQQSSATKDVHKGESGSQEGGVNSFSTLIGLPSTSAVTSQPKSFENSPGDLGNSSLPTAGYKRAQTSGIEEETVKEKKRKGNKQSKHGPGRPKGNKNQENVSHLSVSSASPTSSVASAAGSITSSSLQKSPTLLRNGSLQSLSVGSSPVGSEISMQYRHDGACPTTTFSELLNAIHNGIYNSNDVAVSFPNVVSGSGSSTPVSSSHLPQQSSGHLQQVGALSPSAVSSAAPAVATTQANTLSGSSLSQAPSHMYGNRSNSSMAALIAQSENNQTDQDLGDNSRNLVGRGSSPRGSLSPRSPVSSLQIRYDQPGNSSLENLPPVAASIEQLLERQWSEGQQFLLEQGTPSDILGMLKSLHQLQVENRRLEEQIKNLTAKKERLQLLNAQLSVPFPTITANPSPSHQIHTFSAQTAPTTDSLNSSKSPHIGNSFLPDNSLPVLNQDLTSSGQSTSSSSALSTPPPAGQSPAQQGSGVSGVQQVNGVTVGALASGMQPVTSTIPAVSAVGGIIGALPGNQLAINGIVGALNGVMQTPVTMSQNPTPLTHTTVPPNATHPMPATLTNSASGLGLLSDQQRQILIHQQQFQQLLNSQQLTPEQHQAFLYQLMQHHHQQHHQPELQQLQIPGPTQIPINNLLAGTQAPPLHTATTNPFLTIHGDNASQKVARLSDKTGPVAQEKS
UniProt P08473: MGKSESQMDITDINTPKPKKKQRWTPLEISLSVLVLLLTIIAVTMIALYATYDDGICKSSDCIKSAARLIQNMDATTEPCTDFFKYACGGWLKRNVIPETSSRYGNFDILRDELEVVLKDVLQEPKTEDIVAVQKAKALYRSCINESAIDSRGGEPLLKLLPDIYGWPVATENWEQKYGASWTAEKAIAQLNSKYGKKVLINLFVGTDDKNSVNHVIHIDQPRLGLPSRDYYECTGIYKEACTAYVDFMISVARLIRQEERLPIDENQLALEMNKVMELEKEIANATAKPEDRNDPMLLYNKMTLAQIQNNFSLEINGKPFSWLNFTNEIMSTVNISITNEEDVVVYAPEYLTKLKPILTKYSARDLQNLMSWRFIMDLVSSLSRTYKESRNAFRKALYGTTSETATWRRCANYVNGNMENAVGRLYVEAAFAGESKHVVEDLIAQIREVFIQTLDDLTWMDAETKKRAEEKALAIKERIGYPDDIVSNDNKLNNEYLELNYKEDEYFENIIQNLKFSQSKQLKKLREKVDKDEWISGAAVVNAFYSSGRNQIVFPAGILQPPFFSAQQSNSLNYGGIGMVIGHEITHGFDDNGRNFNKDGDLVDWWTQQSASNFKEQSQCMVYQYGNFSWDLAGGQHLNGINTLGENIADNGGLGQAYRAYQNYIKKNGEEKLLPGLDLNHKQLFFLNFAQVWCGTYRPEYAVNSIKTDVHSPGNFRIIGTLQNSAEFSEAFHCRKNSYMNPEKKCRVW
UniProt O95297: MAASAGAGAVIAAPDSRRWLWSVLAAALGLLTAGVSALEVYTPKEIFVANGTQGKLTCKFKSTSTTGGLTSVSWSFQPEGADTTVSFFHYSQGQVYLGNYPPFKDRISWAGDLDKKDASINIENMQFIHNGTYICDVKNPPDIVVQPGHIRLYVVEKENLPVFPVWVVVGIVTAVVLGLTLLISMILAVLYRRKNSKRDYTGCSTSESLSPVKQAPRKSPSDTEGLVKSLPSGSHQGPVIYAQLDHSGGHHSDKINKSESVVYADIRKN

What was measured:
Experiment in all cases: log2 fold change, soluble protein after heating vs DMSO (PISA); higher = thermal stabilisation; K562 cells, 10 uM, 30 min; active = over 0.2 and 3.5 SD of the protein, either way, in both replicates (recomputed)
erlotinib = compound: C#Cc1cccc(Nc2ncnc3cc(OCCOC)c(OCCOC)cc23)c1 [erlotinib]
Summary of the method: (§1)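 K562 cells (2×10^6 cells/mL) were treated with 10 μM compound for 30 min, and aliquots were heated for 3 min over 48°C-58°C. Pooled aliquots were extracted in PBS with 0.5% NP-40 at 4°C, and the supernatant after 21,000xg for 90 min was measured by TMTpro 16plex LC-MS/MS with channel sums equalised. Reported thermal stability, relative to control samples and from duplicates, is a log2 fold change.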

[1] = compound: C1=CC(=C(C=C1Cl)C2=NC3=NC=CN=C3C(=N2)NC4=CC=NC=C4)F
Summary of the method: as §1

[2] = compound: C1=CC(=CC=C1C2=NC3=C(N2)C=C(C=C3)C(=O)N)OC4=CC=C(C=C4)Cl
Summary of the method: as §1

IRAK-1-4 Inhibitor I = compound: C1COCCN1CCN2C3=CC=CC=C3N=C2NC(=O)C4=CC(=CC=C4)[N+](=O)[O-] [IRAK-1-4 Inhibitor I]
Summary of the method: as §1

[3] = compound: CC(C)(O)CC(=O)NCCn1ccc2ncnc(Nc3ccc(Oc4cccc(C(F)(F)F)c4)c(Cl)c3)c21
Summary of the method: as §1

[4] = compound: CC(C)C1=C2N=C(C=C(N2N=C1)NCC3=CC=CC=C3)NCCCCCCN
Summary of the method: as §1

pinometostat = compound: CC(C)N(C[C@H]1O[C@@H](n2cnc3c(N)ncnc32)[C@H](O)[C@@H]1O)[C@H]1C[C@@H](CCc2nc3cc(C(C)(C)C)ccc3[nH]2)C1 [pinometostat]
Summary of the method: as §1

[5] = compound: C/C(=N\NC(=O)C1=CC(=CC=C1)S(=O)(=O)N2CCOCC2)/C3=C(C=CC(=C3)Cl)O
Summary of the method: as §1

[6] = compound: C1=CC2=C(C=CC(=C2)/C=C\3/C(=O)NC(=NCC4=CC=CS4)S3)N=C1
Summary of the method: as §1

[7] = compound: C1=CC2=NC=CN=C2C=C1/C=C/3\C(=O)NC(=O)S3
Summary of the method: as §1

[8] = compound: C1=CC=C(C=C1)C2=NC(=C(N2)C3=CC=NC=C3)C4=CC(=C(C=C4)Cl)O
Summary of the method: as §1

[9] = compound: C1=CC=C2C(=C1)C3=NNC4=CC=CC(=C43)C2=O
Summary of the method: as §1

[10] = compound: C1CCN(C1)C(=O)NC2=CC=CC(=C2)NC3=NC=C(C(=N3)NCCC4=CN=CN4)Br
Summary of the method: as §1

[11] = compound: C1CN(CCC1(CC2=CC=C(C=C2)Cl)N)C3=NC=NC4=C3C=CN4
Summary of the method: as §1

ibrutinib = compound: C=CC(=O)N1CCC[C@@H](n2nc(-c3ccc(Oc4ccccc4)cc3)c3c(N)ncnc32)C1 [ibrutinib]
Summary of the method: as §1

[12] = compound: CC(=O)c1cnc2ccc(-c3cc(Cl)c(O)c(Cl)c3)nc2c1N[C@H]1CC[C@H](CN(C)C)CC1
Summary of the method: as §1

ralimetinib = compound: CC(C)(C)Cn1c(N)nc2ccc(-c3[nH]c(C(C)(C)C)nc3-c3ccc(F)cc3)nc21 [ralimetinib]
Summary of the method: as §1

[13] = compound: CC(C)C[C@@H](C=O)NC(=O)[C@H](CC(C)C)NC(=O)[C@H](CC(C)C)NC(=O)OCc1ccccc1
Summary of the method: as §1

[14] = compound: CC1=C(C2=C(C=C1)C(=O)C3=CC=CC=C3N2CCCN)C
Summary of the method: as §1

[15] = compound: CC1=C(C(CC(=O)N1)C2=CC=C(C=C2)C(F)(F)F)C(=O)NC3=C(C=C4C(=C3)C=NN4)F
Summary of the method: as §1

Measured: log2 fold change

MR1 (UniProt Q95460)
inactive: erlotinib -0.1 | [1] -0.005 | [2] 0.123 | IRAK-1-4 Inhibitor I 0.051 | [3] 0.052 | [4] -0.099 | pinometostat 0.053

MMADHC (UniProt Q9H3L0)
inactive: erlotinib 0.088 | [5] -0.002 | [2] -0.034 | [6] -0.031 | [7] -0.105 | [8] -0.039 | [9] 0.073 | [10] 0.014 | [11] 0.083 | IRAK-1-4 Inhibitor I 0.014 | ibrutinib -0.056 | [12] -0.011 | ralimetinib 0.073 | [4] 0.039 | [13] 0.076 | pinometostat 0.182 | [14] -0.137

MOB3B (UniProt Q86TA1)
inactive: erlotinib -0.305 | [5] 0.302 | [2] -0.271 | [6] 0.24 | [7] -0.056 | [9] -0.092 | [10] -0.186 | [11] 0.059 | IRAK-1-4 Inhibitor I -0.26 | ibrutinib -0.001 | [12] -0.026 | [4] -0.169 | pinometostat -0.056 | [14] 0.024

MPC1 (UniProt Q9Y5U8)
inactive: erlotinib 0.019 | [5] 0.155 | [2] 0.059 | [6] -0.071 | [7] 0.044 | [8] -0.026 | [9] 0.014 | [10] -0.033 | [11] 0.083 | ibrutinib 0.36 | [12] 0.188 | ralimetinib 0.065 | [4] 0.087 | [13] -0.144 | [15] 0.189 | [14] -0.005

Random excerpt: 2 records from the list.
MMADHC (UniProt Q9H3L0)
inactive: erlotinib 0.088 | [5] -0.002 | [2] -0.034 | [6] -0.031 | [7] -0.105 | [8] -0.039 | [9] 0.073 | [10] 0.014 | [11] 0.083 | IRAK-1-4 Inhibitor I 0.014 | ibrutinib -0.056 | [12] -0.011 | ralimetinib 0.073 | [4] 0.039 | [13] 0.076 | pinometostat 0.182 | [14] -0.137

MPC1 (UniProt Q9Y5U8)
inactive: erlotinib 0.019 | [5] 0.155 | [2] 0.059 | [6] -0.071 | [7] 0.044 | [8] -0.026 | [9] 0.014 | [10] -0.033 | [11] 0.083 | ibrutinib 0.36 | [12] 0.188 | ralimetinib 0.065 | [4] 0.087 | [13] -0.144 | [15] 0.189 | [14] -0.005

Going on with the list.

MKRN3 (UniProt Q13064)
inactive: erlotinib -0.08 | [5] -0.239 | [1] 0.011 | [2] -0.087 | [6] 0.378 | [8] -0.183 | [9] 0.109 | [10] 0.045 | [11] 0.118 | IRAK-1-4 Inhibitor I 0.052 | [12] -0.259 | ralimetinib -0.05 | [3] 0.015 | [4] 0.25 | [13] -0.175 | pinometostat -0.078 | [15] 0.075 | [14] -0.108

MNT (UniProt Q99583)
inactive: [5] 0.008 | [1] 0.068 | [6] 0.001 | [7] -0.092 | [8] 0.06 | [9] -0.071 | [10] 0.146 | [11] -0.136 | IRAK-1-4 Inhibitor I 0.049 | ibrutinib -0.032 | [12] -0.185 | ralimetinib -0.017 | [3] -0.061 | [13] -0.048 | pinometostat 0.123 | [15] -0.048 | [14] 0.268

MPHOSPH8 isoform 2 (UniProt Q99549)
active: [14] -0.84
inactive: [5] 0.033 | [1] 0.24 | [6] -0.044 | [8] -0.055 | [9] -0.086 | [10] -0.02 | [11] -0.065 | IRAK-1-4 Inhibitor I -0.149 | [12] 0.026 | ralimetinib 0.271 | [3] -0.06 | [13] 0.035 | pinometostat -0.027

MOB3A (UniProt Q96BX8)
inactive: erlotinib -0.007 | [5] 0.022 | [2] -0.096 | [6] -0.033 | [7] 0.037 | [8] -0.014 | [9] 0.052 | [10] -0.029 | [11] 0.011 | IRAK-1-4 Inhibitor I 0.062 | ibrutinib -0.011 | [12] 0.014 | ralimetinib 0.121 | [4] -0.018 | [13] 0.122 | pinometostat 0.012 | [15] 0.09 | [14] -0.003

MRAS (UniProt O14807)
inactive: erlotinib 0.047 | [2] 0.123 | [7] -0.03 | IRAK-1-4 Inhibitor I 0.084 | ibrutinib 0.053 | [4] -0.03 | pinometostat -0.046 | [15] 0.022

MINDY4 (UniProt Q4G0A6)
inactive: [8] 0.007 | ralimetinib 0.165 | [13] 0.145

MKRN1 (UniProt Q9UHC7)
inactive: erlotinib 0.012 | [1] -0.131 | [2] 0.044 | [7] 0.063 | [8] -0.179 | [10] 0.08 | [11] -0.278 | IRAK-1-4 Inhibitor I -0.202 | ibrutinib 0.09 | ralimetinib 0.063 | [3] 0.161 | [4] 0.049 | [13] 0.242 | pinometostat -0.058 | [15] -0.048 | [14] -0.163

MMTAG2 (UniProt Q9BU76)
inactive: erlotinib -0.031 | [5] -0.161 | [2] 0.028 | [6] -0.155 | [7] -0.181 | [8] -0.093 | [9] -0.052 | [10] -0.135 | [11] -0.059 | IRAK-1-4 Inhibitor I -0.097 | ibrutinib 0.066 | [12] 0.052 | ralimetinib 0.18 | [4] 0.097 | [13] 0.089 | pinometostat 0.137 | [15] -0.031 | [14] -0.141

MRFAP1 (UniProt Q9Y605)
inactive: erlotinib -0.007 | [5] -0.019 | [2] -0.013 | [6] -0.334 | [7] 0.014 | [8] -0.045 | [9] 0.141 | [10] -0.162 | [11] -0.106 | IRAK-1-4 Inhibitor I 0.218 | ibrutinib -0.017 | [12] 0.206 | ralimetinib -0.022 | [4] -0.056 | [13] 0.437 | pinometostat -0.016 | [14] -0.339

MLLT10 (UniProt P55197)
inactive: [1] -0.044 | [7] -0.075 | [8] -0.353 | ibrutinib 0.107 | ralimetinib 0.052 | [3] 0.075 | [13] 0.056

MME (UniProt P08473)
inactive: erlotinib 0.081 | [2] -0.063 | [7] 0.004 | ibrutinib -0.076 | [4] 0.055

MPZL1 isoform 3 (UniProt O95297)
inactive: [5] 0.123 | [6] -0.051 | [9] 0.073 | [10] 0.147 | [11] 0.019 | [12] -0.045 | [14] 0.354
